# In the supplement of paper PMC12819154, “High-throughput peptide-centric local stability assay extends protein–ligand identification to membrane proteins, tissues and bacteria” (Nature Structural & Molecular Biology, 2025):
# Sequences of proteins named here, by UniProt entry; tags and fusion partners are left off. A change or cut given only in a name is not applied to a line headed by its entry.
# UniProt O43464: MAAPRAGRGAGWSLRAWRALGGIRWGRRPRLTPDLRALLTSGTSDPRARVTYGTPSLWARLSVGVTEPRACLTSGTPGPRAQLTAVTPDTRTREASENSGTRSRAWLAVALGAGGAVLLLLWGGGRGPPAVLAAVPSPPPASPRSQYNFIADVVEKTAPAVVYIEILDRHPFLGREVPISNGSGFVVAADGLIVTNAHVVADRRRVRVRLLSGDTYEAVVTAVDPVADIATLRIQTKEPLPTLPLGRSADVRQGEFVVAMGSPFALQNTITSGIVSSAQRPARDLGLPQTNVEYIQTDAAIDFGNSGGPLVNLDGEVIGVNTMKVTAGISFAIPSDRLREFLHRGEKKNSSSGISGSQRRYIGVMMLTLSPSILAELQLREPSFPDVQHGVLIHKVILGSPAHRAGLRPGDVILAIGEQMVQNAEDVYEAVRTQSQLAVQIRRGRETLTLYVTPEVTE
# UniProt O43566: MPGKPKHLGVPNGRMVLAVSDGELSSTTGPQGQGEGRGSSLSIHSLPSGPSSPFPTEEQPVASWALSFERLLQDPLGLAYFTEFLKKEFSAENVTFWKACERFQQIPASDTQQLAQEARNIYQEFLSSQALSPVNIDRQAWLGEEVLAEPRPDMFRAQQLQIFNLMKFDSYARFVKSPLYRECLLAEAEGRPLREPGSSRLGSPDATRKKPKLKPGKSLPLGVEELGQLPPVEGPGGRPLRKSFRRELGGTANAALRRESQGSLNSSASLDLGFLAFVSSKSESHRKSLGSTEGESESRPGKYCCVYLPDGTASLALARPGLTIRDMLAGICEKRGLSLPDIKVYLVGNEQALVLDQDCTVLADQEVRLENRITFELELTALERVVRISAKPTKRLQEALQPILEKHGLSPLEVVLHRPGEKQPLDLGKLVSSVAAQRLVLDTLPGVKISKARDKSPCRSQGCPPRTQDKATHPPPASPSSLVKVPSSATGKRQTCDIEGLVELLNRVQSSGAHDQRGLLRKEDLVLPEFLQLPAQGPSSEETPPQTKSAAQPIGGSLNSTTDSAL
# UniProt O43633: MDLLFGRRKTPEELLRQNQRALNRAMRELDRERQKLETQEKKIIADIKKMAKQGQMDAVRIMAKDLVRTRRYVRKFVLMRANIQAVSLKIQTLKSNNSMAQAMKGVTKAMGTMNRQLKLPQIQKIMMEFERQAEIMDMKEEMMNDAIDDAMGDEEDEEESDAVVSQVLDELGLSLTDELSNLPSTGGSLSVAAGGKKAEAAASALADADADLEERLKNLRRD
# UniProt O43149: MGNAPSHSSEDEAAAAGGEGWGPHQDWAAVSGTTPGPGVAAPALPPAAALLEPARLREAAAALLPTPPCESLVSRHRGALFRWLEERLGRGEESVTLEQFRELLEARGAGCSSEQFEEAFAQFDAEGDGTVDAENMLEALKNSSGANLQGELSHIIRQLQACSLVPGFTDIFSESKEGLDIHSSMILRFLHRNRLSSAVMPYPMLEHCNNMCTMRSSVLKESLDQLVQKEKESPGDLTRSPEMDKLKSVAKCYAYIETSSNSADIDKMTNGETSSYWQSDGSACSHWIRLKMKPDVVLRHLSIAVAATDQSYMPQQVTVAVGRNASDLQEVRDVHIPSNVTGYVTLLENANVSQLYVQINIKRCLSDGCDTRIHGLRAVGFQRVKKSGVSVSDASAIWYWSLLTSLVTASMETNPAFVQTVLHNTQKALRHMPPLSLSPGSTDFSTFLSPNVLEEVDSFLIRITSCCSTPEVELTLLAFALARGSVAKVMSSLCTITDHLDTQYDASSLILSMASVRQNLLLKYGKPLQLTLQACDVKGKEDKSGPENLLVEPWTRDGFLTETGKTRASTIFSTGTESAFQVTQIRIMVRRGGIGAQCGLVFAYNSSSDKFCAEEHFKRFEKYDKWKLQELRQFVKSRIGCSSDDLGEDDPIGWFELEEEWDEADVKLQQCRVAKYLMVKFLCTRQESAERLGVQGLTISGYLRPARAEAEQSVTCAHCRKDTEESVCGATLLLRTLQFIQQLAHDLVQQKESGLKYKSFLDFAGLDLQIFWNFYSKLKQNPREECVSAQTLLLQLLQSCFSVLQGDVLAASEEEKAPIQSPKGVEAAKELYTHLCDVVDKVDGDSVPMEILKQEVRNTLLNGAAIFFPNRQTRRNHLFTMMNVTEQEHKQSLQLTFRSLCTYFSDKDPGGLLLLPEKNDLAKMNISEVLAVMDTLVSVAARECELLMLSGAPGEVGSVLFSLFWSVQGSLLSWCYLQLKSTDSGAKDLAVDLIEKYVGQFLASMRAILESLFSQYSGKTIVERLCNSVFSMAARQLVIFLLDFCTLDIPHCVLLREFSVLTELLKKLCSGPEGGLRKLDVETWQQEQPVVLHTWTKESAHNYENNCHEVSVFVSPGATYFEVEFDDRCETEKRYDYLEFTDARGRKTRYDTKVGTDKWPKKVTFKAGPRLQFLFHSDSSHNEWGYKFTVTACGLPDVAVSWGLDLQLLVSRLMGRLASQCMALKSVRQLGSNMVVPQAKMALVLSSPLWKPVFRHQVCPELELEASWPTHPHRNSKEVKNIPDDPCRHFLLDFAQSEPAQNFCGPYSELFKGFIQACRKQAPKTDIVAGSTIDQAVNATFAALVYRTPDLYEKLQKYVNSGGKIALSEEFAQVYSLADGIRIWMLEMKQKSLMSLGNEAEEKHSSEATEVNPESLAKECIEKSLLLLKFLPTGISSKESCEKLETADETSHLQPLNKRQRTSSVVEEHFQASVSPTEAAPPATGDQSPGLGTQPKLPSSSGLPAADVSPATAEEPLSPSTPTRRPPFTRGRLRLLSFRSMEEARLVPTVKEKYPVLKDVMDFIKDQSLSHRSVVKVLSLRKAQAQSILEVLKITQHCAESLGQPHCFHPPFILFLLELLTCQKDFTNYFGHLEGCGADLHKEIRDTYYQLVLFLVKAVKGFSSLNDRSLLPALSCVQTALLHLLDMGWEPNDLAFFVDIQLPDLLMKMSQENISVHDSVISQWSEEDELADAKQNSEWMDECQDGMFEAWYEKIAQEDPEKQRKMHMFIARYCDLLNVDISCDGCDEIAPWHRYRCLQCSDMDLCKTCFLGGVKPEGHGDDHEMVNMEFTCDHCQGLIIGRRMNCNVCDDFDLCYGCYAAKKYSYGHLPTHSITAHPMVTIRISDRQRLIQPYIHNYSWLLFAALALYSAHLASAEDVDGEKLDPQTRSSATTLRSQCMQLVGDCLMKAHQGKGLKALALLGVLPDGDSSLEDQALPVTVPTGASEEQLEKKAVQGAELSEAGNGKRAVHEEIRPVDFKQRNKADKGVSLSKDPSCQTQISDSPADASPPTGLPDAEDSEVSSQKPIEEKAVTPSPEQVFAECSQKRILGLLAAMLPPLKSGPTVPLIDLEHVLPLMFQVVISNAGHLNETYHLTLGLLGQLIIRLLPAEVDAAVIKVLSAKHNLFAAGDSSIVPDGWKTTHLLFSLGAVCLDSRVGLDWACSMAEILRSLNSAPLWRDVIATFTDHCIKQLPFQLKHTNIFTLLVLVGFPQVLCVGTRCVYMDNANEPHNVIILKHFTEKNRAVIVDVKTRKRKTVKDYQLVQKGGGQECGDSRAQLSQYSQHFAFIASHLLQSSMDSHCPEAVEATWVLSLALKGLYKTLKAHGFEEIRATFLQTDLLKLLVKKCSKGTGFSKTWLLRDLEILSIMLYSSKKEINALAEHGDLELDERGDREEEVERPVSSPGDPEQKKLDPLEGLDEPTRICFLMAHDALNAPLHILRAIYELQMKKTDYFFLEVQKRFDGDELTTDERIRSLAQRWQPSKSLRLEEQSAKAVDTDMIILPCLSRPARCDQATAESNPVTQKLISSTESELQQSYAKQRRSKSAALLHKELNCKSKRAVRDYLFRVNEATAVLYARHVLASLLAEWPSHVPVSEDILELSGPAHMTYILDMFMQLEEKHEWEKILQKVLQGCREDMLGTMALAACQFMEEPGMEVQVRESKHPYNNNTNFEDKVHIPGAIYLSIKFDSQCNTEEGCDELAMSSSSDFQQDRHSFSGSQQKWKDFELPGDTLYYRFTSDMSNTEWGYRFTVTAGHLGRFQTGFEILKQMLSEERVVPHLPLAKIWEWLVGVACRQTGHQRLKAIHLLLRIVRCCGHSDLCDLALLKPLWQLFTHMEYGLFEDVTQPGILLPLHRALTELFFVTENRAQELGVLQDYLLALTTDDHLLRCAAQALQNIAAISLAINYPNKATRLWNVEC
# UniProt O60678: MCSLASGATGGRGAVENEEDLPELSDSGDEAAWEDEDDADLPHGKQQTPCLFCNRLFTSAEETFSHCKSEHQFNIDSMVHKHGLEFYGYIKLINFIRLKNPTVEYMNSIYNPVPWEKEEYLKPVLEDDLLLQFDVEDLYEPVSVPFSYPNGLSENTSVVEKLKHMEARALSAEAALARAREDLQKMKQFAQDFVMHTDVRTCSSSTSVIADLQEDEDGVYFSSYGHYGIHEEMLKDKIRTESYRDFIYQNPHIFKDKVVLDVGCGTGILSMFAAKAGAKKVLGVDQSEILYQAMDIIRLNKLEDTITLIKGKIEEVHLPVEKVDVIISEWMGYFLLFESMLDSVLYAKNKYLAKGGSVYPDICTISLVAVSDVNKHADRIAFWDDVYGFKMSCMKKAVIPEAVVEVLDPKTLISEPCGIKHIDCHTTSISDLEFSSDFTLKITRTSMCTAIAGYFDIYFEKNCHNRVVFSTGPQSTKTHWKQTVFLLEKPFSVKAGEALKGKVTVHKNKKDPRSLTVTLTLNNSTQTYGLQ
# UniProt O60861: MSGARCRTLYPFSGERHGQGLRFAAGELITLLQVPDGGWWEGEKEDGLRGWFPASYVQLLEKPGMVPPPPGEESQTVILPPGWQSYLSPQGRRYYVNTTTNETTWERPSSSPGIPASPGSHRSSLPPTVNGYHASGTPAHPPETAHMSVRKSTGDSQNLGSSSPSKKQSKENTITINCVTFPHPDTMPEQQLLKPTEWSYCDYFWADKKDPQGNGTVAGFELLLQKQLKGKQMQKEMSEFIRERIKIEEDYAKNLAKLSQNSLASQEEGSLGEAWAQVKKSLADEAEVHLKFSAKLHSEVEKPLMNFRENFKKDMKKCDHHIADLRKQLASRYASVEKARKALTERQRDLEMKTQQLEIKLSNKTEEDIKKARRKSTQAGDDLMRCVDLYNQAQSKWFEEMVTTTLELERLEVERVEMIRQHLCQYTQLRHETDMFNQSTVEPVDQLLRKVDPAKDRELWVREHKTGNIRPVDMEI
# UniProt O43255: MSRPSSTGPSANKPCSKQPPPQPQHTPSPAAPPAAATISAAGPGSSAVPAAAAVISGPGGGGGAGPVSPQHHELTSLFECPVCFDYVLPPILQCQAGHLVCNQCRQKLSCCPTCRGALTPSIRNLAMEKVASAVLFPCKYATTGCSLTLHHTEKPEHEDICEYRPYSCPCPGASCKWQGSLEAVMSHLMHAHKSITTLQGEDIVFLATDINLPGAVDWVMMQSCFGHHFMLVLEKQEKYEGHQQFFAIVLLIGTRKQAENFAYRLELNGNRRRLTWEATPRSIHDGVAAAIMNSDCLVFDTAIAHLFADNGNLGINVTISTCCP
# UniProt O60264, whole entry: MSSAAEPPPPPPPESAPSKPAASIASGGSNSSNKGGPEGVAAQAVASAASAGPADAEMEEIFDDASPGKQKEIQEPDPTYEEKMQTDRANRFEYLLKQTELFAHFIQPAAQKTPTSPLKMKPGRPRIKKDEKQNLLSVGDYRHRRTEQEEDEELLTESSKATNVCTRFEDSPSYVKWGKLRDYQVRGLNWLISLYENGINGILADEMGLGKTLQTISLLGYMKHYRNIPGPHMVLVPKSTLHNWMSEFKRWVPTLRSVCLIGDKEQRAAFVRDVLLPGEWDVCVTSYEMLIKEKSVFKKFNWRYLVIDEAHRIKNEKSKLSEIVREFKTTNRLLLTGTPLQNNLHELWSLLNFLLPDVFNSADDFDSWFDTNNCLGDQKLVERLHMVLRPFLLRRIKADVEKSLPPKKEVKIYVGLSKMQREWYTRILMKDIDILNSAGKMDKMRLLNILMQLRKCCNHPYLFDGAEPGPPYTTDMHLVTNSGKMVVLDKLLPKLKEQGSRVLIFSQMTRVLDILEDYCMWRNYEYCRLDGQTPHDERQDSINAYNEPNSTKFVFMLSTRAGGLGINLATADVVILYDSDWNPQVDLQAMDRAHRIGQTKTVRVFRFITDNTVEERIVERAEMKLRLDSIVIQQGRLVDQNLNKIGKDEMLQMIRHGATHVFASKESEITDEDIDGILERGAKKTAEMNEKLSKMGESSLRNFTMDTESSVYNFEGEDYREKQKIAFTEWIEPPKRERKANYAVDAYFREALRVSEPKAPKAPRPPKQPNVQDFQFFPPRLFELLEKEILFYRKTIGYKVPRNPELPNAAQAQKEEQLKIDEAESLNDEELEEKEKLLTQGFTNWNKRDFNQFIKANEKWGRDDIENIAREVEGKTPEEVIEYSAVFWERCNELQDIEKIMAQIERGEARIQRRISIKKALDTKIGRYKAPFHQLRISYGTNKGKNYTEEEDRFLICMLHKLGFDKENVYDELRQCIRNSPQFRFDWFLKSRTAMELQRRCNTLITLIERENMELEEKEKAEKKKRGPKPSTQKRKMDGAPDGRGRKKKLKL
# This is one part of the list. Most entries show no effect beyond the scatter of the controls.
# Compound: CN[C@@H]1C[C@H]2O[C@@](C)([C@@H]1OC)n1c3ccccc3c3c4c(c5c6ccccc6n2c5c31)C(=O)NC4 [staurosporine]
# Test: log2 fold change of tryptic peptide abundance, ligand vs vehicle (limited proteolysis) (log2 ratio); higher = more trypsin-susceptible (destabilized)
# Details: ligand concentration: 20 uM; sample: K562 cleared lysate; digestion: 4 min, 22 C (HT-PELSA RT4min, Orbitrap Astral)
row,Target,log2 fold change
1,"STX6 (peptide sequence: DMKDQMSTSSVQALAER, peptide start residue: 101) (UniProt O43752)",-3.67
2,"AQR (peptide sequence: YWAPHIK, peptide start residue: 30) (UniProt O60306)",-0.17
3,"HTRA2 (peptide sequence: EPSFPDVQHGVLIHK, peptide start residue: 381) (UniProt O43464)",0.643
4,"MAGEB2 (peptide sequence: SPSEDPLTRK, peptide start residue: 105) (UniProt O15479)",0.197
5,"PEX14 (peptide sequence: RGGDGQINEQVEK, peptide start residue: 351) (UniProt O75381)",-0.427
6,"RGS14 (peptide sequence: HGLSPLEVVLHRPGEK, peptide start residue: 407) (UniProt O43566)",0.37
7,"PDCD6 (peptide sequence: SIISMFDRENK, peptide start residue: 67) (UniProt O75340)",0.149
8,"CHMP2A (peptide sequence: QKLETQEK, peptide start residue: 34) (UniProt O43633)",0.309
9,"UniProt O43504 (peptide sequence: HDGITVAVHK, peptide start residue: 79)",0.16
10,"PAPSS1 (peptide sequence: TDAETLPALK, peptide start residue: 249) (UniProt O43252)",-0.322
11,"ZZEF1 (peptide sequence: AVDTDMIILPCLSRPAR, peptide start residue: 2536) (UniProt O43149)",-0.231
12,"NBN (peptide sequence: VQKQEEDVNVR, peptide start residue: 580) (UniProt O60934)",-0.159
13,"KIF1C (peptide sequence: SRGAGSAQPEPQHFQPK, peptide start residue: 1040) (UniProt O43896)",-0.945
14,"WIPF1 (peptide sequence: GAPPLPPIPR, peptide start residue: 494) (UniProt O43516)",0.188
15,"NDUFS7 (peptide sequence: KVYDQMPEPR, peptide start residue: 136) (UniProt O75251)",-0.181
16,"SIPA1L1 (peptide sequence: VHNPCSDSVCYSVAVTR, peptide start residue: 741) (UniProt O43166)",-0.375
17,"SH3BGRL (peptide sequence: DIAANEENRK, peptide start residue: 38) (UniProt O75368)",-0.817
18,"AP1G1 (peptide sequence: STIVDCLKDLDVSIK, peptide start residue: 348) (UniProt O43747)",-0.378
19,"TBCA (peptide sequence: AEDGENYDIKKQAEILQESR, peptide start residue: 42) (UniProt O75347)",0.381

# Some of the entries above in another layout.
row	Target	log2 fold change
2	AQR (peptide sequence: YWAPHIK, peptide start residue: 30) (UniProt O60306)	-0.17
8	CHMP2A (peptide sequence: QKLETQEK, peptide start residue: 34) (UniProt O43633)	0.309
9	UniProt O43504 (peptide sequence: HDGITVAVHK, peptide start residue: 79)	0.16
11	ZZEF1 (peptide sequence: AVDTDMIILPCLSRPAR, peptide start residue: 2536) (UniProt O43149)	-0.231
13	KIF1C (peptide sequence: SRGAGSAQPEPQHFQPK, peptide start residue: 1040) (UniProt O43896)	-0.945
14	WIPF1 (peptide sequence: GAPPLPPIPR, peptide start residue: 494) (UniProt O43516)	0.188
19	TBCA (peptide sequence: AEDGENYDIKKQAEILQESR, peptide start residue: 42) (UniProt O75347)	0.381

# (listing goes on)

row,Target,log2 fold change
1,"PRMT3 (peptide sequence: ALSAEAALAR, peptide start residue: 169) (UniProt O60678)",0.192
2,"HMMR (peptide sequence: LDIAQLEENLKEKNDEILSLK, peptide start residue: 252) (UniProt O75330)",0.642
3,"UniProt O60861 (peptide sequence: TEEDIKK, peptide start residue: 365)",0.127
4,"UGDH (peptide sequence: RVLDGLHNELQTIGFQIETIGKK, peptide start residue: 443) (UniProt O60701)",-0.273
5,"SIAH2 (peptide sequence: LSCCPTCR, peptide start residue: 108) (UniProt O43255)",-0.605
6,"DPM1 (peptide sequence: HATGNYIIIMDADLSHHPK, peptide start residue: 108) (UniProt O60762)",0.347
7,"XRCC3 (peptide sequence: EVLHFSGPDLK, peptide start residue: 26) (UniProt O43542)",-0.457
8,"UniProt O43776 (peptide sequence: FLTWILNR, peptide start residue: 523)",-0.206
9,"SMARCA5 (peptide sequence: STLHNWMSEFKR, peptide start residue: 239) (UniProt O60264)",0.154
10,"CBFA2T3 (peptide sequence: QAMSELQK, peptide start residue: 500) (UniProt O75081)",0.114
11,"MCM3AP (peptide sequence: LAVVHFFDHASAALAR, peptide start residue: 473) (UniProt O60318)",-0.463
12,"ZNF217 (peptide sequence: CKHSHGEAPSVDADPKLPSSK, peptide start residue: 351) (UniProt O75362)",-0.872
13,"PHF2 (peptide sequence: VASIETGLAAAAAK, peptide start residue: 902) (UniProt O75151)",-0.0457
14,"TPD52L2 (peptide sequence: AELTKVEEEIVTLR, peptide start residue: 51) (UniProt O43399)",1.24
15,"WDR62 (peptide sequence: SAQQGSDGLHFVR, peptide start residue: 609) (UniProt O43379)",0.266
16,"TSC22D2 (peptide sequence: HSSTFDQTAER, peptide start residue: 204) (UniProt O75157)",0.184
17,"UniProt O43422 (peptide sequence: INSGEEVLRK, peptide start residue: 209)",-0.622
18,"EVI5 (peptide sequence: EMEEQVEIKR, peptide start residue: 422) (UniProt O60447)",-0.512
